From publication PMC11633740, “Rapid prediction of acute thrombosis via nanoengineered immunosensors with unsupervised clustering for multiple circulating biomarkers”

Amino acid sequences for entries named in this document (tags omitted). Residues count along the entry.
UniProt P16109, 42-771: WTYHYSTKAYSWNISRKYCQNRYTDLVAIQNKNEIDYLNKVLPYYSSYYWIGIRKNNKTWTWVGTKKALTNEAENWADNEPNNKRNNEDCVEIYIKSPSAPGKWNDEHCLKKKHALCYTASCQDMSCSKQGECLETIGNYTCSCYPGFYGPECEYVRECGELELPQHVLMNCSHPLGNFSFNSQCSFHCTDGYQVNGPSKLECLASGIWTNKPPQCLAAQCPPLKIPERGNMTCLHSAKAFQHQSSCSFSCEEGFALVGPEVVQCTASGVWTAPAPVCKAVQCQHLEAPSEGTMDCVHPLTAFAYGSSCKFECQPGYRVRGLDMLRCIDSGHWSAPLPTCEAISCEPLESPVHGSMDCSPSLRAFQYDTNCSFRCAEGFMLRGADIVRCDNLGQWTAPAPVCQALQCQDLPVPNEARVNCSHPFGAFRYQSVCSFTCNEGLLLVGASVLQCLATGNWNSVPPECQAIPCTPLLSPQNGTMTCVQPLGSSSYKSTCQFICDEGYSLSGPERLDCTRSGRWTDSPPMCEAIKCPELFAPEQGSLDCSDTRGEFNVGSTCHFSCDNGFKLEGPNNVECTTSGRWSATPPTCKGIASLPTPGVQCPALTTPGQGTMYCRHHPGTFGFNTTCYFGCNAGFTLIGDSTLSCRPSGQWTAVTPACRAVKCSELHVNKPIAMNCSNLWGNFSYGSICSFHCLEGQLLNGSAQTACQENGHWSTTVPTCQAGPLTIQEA

What was measured:
[1] = biological target: soluble P-selectin (sP-selectin) (human) (UniProt P16109); experiment: SPR; conditions: immobilized aptamer, no Kd given in text; thiol (position not given) for the electrode; no 2' modification stated; SPR (Biacore 2000, SA chip): 10 mM Hepes, 150 mM NaCl, pH 7.4, 0.005% Tween 20, 25 C; commercial protein
[2] = biological target: T1, C-reactive protein (CRP) (human) (UniProt P02741); experiment: SPR; conditions: immobilized aptamer, no Kd given in text; thiol (position not given) for the electrode; SPR (Biacore 2000, SA chip): 10 mM Hepes, 150 mM NaCl, pH 7.4, 0.005% Tween 20, 25 C; commercial protein; single-stranded DNA
T1 sequence (looked up, limits assumed): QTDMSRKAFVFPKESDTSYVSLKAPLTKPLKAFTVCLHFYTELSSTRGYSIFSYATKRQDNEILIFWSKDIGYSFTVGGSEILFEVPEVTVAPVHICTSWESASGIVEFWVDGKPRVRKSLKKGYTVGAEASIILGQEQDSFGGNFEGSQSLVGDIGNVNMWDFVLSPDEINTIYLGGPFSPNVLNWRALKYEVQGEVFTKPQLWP

Sequence	binding result [1]	binding result [2]
ACGCUCAACGAGCCAGGAACAUCGACGUCAGCAAACGCGAGCGCAACCAGUAACACC [sP-selectin aptamer]	binds	
GCCTGTAAGGTGGTCGGTGTGGCGAGTGTGTTAGGAGAGATTGC [CRP aptamer]		binds

The exact form of at least one protein or probe is not confirmed. At least one verdict rests on a figure or table, not on a statement of the authors. For some assays here: Tags and fusion partners may be left off the protein sequences shown.
